# PubChem BioAssay AID504774 | Drosophila RNAi Screening Center | 2011
# Test: 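Genes required for cells to withstand methyl methanesulphonate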 (primary screen)
# Cells: Drosophila Kc167 cells
# Reagent: long dsRNA against Drosophila genes, about 0.25 µg dsRNA per well
# Timing: about 6 days: 3 days knock-down, then 3 days with or without MMS
# Conditions: methyl methanesulphonate 0.004% (w/v) for 3 days after knock-down
# Measured: 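ATP-dependent luminescence as a measure of live cells in MMS-exposed wells, quantile normalised within each plate, with replicate values also given as a mean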
# Direction: mean viability with MMS and viability with MMS: higher = more surviving cells after MMS
# The deposit covers about 23,000 reagents; this is a random part of those with a known target gene and a result. 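Values are quantile-normalised luminescence on an arbitrary scale; higher means more cells surviving MMS.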 Reagents against one gene are numbered here. A plus sign joins genes that one reagent is predicted to hit.
gene knocked down,reagent,mean viability with MMS,"viability with MMS, replicate 1","viability with MMS, replicate 2"
agt (O-6-alkylguanine-DNA alkyltransferase),1,3.61e6,4.14e6,4.05e6
Ccn,1,3.54e6,3.83e6,4.19e6
Ccn,2,3.47e6,4.05e6,3.86e6
Ccn,3,3.77e6,4.18e6,4.26e6
Ccn,4,3.49e6,3.85e6,4.04e6
CG14673 (retired record),1,3.73e6,4.21e6,4.21e6
CG46491,1,3.73e6,4.20e6,4.24e6
CG46491,2,3.51e6,3.90e6,4.06e6
CG14841,1,3.60e6,3.98e6,4.20e6
VhaM9.7-c (Vacuolar H[+] ATPase M9.7 subunit c),1,3.57e6,4.01e6,4.10e6
Cyp4ac1 (Cytochrome P450 4ac1),1,3.68e6,4.16e6,4.25e6
Cyp28d2 (Cytochrome P450 28d2),1,3.58e6,4.05e6,4.06e6
CG9016,1,3.58e6,4.01e6,4.08e6
CG12644 (retired record),1,3.66e6,4.05e6,4.21e6
Bap60 (Brahma associated protein 60kD),1,3.29e6,3.41e6,3.87e6
CG10588,1,3.49e6,4.01e6,3.87e6

A run of entries of the results above:
gene knocked down,reagent,mean viability with MMS,"viability with MMS, replicate 1","viability with MMS, replicate 2"
agt (O-6-alkylguanine-DNA alkyltransferase),1,3.61e6,4.14e6,4.05e6
Ccn,1,3.54e6,3.83e6,4.19e6
Ccn,2,3.47e6,4.05e6,3.86e6
Ccn,3,3.77e6,4.18e6,4.26e6
Ccn,4,3.49e6,3.85e6,4.04e6

Next records follow:
gene knocked down,reagent,mean viability with MMS,"viability with MMS, replicate 1","viability with MMS, replicate 2"
yip7 (yippee interacting protein 7),1,3.51e6,4.04e6,3.94e6
TwdlD (TweedleD),1,3.50e6,3.94e6,3.97e6
CG6791,1,3.51e6,3.98e6,3.98e6
CG32582 (retired record),1,3.67e6,4.14e6,4.09e6
CG3253,1,3.42e6,3.75e6,4.06e6
Rbp4 (RNA-binding protein 4),1,3.86e6,4.48e6,4.24e6
CG5895,1,3.52e6,4.06e6,3.91e6
Mat89Ba (Maternal transcript 89Ba),1,3.57e6,4.08e6,4.01e6
CG4806,1,3.42e6,3.88e6,3.84e6
CG2126,1,3.53e6,3.95e6,4.05e6
mthl13 (methuselah-like 13),1,3.58e6,4.01e6,4.08e6
CG7557,1,3.53e6,4.09e6,3.90e6
CG12672,1,3.58e6,4.07e6,4.04e6
png (pan gu),1,3.48e6,4.02e6,3.89e6
CG30049,1,3.68e6,4.19e6,4.11e6
CG15909,1,3.25e6,3.61e6,3.63e6
Hsl (Hormone-sensitive lipase),1,3.57e6,4.08e6,4.02e6
Rh6 (Rhodopsin 6),1,3.40e6,3.85e6,3.85e6
ind (intermediate neuroblasts defective),1,3.01e6,3.53e6,3.58e6
ind (intermediate neuroblasts defective),2,3.51e6,3.93e6,4.07e6
CG10514,1,3.43e6,3.96e6,3.76e6
CG12817 + CG12420,1,3.47e6,4.05e6,3.87e6
CG12128 + CG1407,1,3.76e6,4.20e6,4.30e6
Cyp6g2 (Cytochrome P450 6g2),1,3.63e6,4.00e6,4.08e6
Sb (Stubble),1,3.45e6,3.92e6,3.88e6
CG6927,1,3.73e6,4.08e6,4.09e6
Arp8 (Actin-related protein 8),1,3.95e6,4.50e6,4.51e6
kl-5 (retired record),1,3.61e6,4.14e6,4.00e6
kl-5 (retired record),2,2.42e6,4.10e6,4.01e6
kl-5 (retired record),3,2.35e6,3.89e6,4.02e6
kl-5 (retired record),4,3.39e6,3.88e6,3.83e6
